The text below walks through data of article PMC12216206.

No constants are given. Whether binding was seen depends on the method and setting. Binding seen in cells or lysates may run through a third protein. A yes stands for co-enrichment or nearness to the bait. Other partners may have been found. Where a sequence is shown, tags or fusion partners need not be part of it.

The experiment concerns the target T1, VERNALIZATION1 (VRN1) with C-terminal Strep-II/FLAG TAP tag (Arabidopsis thaliana) (UniProt Q8L3W1).
T1 sequence: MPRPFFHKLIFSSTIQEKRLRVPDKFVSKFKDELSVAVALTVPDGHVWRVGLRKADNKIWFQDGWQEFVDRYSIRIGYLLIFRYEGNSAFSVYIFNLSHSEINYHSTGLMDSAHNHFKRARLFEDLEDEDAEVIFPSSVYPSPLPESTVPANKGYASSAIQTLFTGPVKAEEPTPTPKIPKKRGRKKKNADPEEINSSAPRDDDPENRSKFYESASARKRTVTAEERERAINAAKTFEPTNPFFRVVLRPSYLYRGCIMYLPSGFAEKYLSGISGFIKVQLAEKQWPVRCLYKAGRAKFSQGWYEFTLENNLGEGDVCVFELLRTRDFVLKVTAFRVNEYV
As to the kind of experiment: affinity purification with mass spectrometry; anti-FLAG IP (Sigma F1804 on M-270 epoxy Dynabeads, overnight, 4 °C) of VRN1-FLAG from purified nuclei of seedlings crosslinked with 1% formaldehyde, treated with Benzonase and sonicated with 0.5% SDS; lines #24 and #37; WT FRI without the transgene as control; seedlings grown at warm temperature, also after three weeks of cold.

Turning to FVE, the binding entry is “binds”.
